Results deposited as PubChem BioAssay AID504804 (Drosophila RNAi Screening Center, 2011).
Assay: 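Fly genes whose loss lessens doxorubicin-driven cell death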 (primary screen). System: Drosophila Kc cells. Knock-down reagent: long dsRNA against Drosophila genes, 0.5 µg dsRNA per well. Duration: 96 h (48 h knock-down, then 48 h drug). Conditions: doxorubicin 5 µg/ml for 48 h, added 48 h after dsRNA. Detection: 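Luminescent ATP counts per replicate, not normalised, reflecting viable cells after 48 h dsRNA knock-down followed by 48 h of 5 µg/ml doxorubicin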. Scale: raw ATP luminescence: higher = more viable cells, protection from doxorubicin. Active means: 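z-score of 2 or more over plate mean in both duplicates, retained only when retests and separate dsRNAs confirm the protection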.
The screen tested about 19,000 reagents; below is an unselected part of those with a known target gene and a result. Over the whole deposit, 47 (0.25%) were called active. 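Signals are raw, not normalised; exact z-scores behind calls not deposited; actives needed confirmation, so some wells reaching 2 SD are inactive.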 Names joined by + are all predicted targets of the reagent. Reagent sequences are not shown.

no.	gene	dsRNA	SD above plate mean	raw ATP luminescence, replicate 1	raw ATP luminescence, replicate 2	activity call
1	hpo	DRSC06065		47633	54273	inactive
2	CG10863	DRSC08145		61640	44033	inactive
3	Cpr65Ea	DRSC11027		75870	91890	inactive
4	CG33229	DRSC07863		1.27e5	79783	inactive
5	CG18281	DRSC11742		22977	25580	inactive
6	Alg10	DRSC10892		82283	85000	inactive
7	Cpr100A	DRSC14465		52840	41630	inactive
8	CG13315	DRSC09986		54567	77863	inactive
9	CG3285	DRSC00589		1.07e5	78473	inactive
10	Pp2A-29B	DRSC03400		37390	73950	inactive
11	CG4250	DRSC04455		40973	68693	inactive
12	tho2	DRSC00646		97263	79010	inactive
13	CG31954	DRSC00580		1.03e5	77403	inactive
14	Nak	DRSC03379		1.35e5	83810	inactive
15	smg	DRSC11397		52067	42170	inactive
16	ey	DRSC17173		42460	46440	inactive
17	moi + Tgs1	DRSC16371		61540	74720	inactive
18	bi	DRSC18742		31230	45910	inactive
19	CG6178	DRSC15984		35400	52107	inactive
20	CanB2	DRSC07355		1.60e5	2.17e5	inactive
21	CG31091	DRSC15933		71390	47860	inactive
22	Or98a	DRSC16774		52680	37690	inactive
23	CG13623	DRSC14625		22690	20120	inactive
24	CG42712 (retired record)	DRSC01038		2.44e5	2.79e5	inactive
25	CG6576	DRSC10663		95453	96817	inactive
26	CG34297	DRSC12410		30070	48757	inactive
27	Tbc1d15-17	DRSC00313		1.21e5	63860	inactive
28	CG14269	DRSC17912		53770	58820	inactive
29	CG34217	DRSC05083		64317	65687	inactive
30	dec	DRSC18759		40150	36080	inactive
31	jagn	DRSC12152		66710	31133	inactive
32	Yod1	DRSC10433	2 to 3 SD above plate mean	89333	63203	inactive
33	Rpn12R	DRSC09842		61063	57967	inactive
34	bdl	DRSC00271		1.26e5	75510	inactive
35	CG13046	DRSC09927		41527	26277	inactive
36	Stip1	DRSC00756		85207	64900	inactive
37	CG9269	DRSC16465		76070	1.05e5	inactive
38	rin	DRSC17045		36110	28510	inactive
39	CG14757	DRSC06492		53307	81443	inactive
40	IntS1	DRSC04343		51817	63953	inactive
41	Uqcc1 + CG9948	DRSC09690		58373	74220	inactive
42	TwdlM	DRSC15810		37510	47240	inactive
43	Vago	DRSC19833		3.17e5	3.59e5	inactive
44	Atet	DRSC00263		19473	18880	inactive
45	Usp10	DRSC08282		60353	64497	inactive
46	CG17129	DRSC08508		81820	62273	inactive
47	eIF2Bgamma	DRSC07100		74780	63277	inactive
48	CG6034	DRSC10572		48827	47377	inactive
49	CG8569	DRSC07214		61217	50230	inactive
50	X11L	DRSC19958		1.99e5	2.11e5	inactive
51	X11L	DRSC19959		2.09e5	2.00e5	inactive
52	Shmt	DRSC18264		40140	48050	inactive
53	CG6527	DRSC10659		72797	55083	inactive
54	MED7	DRSC16059		55773	43877	inactive
55	tank	DRSC00461		21560	30557	inactive
56	Mal-A1	DRSC07461		51647	65417	inactive
57	pit	DRSC17025		65610	80300	inactive
58	ppk27	DRSC08168	at least 2 SD above plate mean			active
59	CG17163	DRSC20901		3.36e5	3.17e5	inactive
60	RpL22-like	DRSC04582		46370	43737	inactive
61	CG42713	DRSC01050		3.23e5	2.35e5	inactive
62	CG10710	DRSC09784		74030	62510	inactive
63	CG31269	DRSC15744		65570	67400	inactive
64	CG11755	DRSC14374		58147	61020	inactive
65	tkv	DRSC00860		2.41e5	2.68e5	inactive
66	tkv	DRSC03623		1.15e5	73933	inactive
67	mim	DRSC05013		19587	32167	inactive
68	Cby	DRSC14591		73000	76750	inactive
69	cher	DRSC16924		50713	45800	inactive
70	CG31636	DRSC02276		29170	25163	inactive
71	unc-119	DRSC18846		37590	43150	inactive
72	mon2	DRSC03112		46190	82033	inactive
73	Msh6	DRSC10759		90313	59567	inactive
74	CG3894	DRSC01762		60300	55917	inactive
75	CG3894	DRSC04012		73473	81670	inactive
76	CG3894	DRSC04429	at least 3 SD above plate mean	1.04e5	85130	active
77	LManII	DRSC01986		72507	57933	inactive
78	CG43333	DRSC01917		54300	72827	inactive
79	CG10000	DRSC14170		54890	37560	inactive
80	kat80	DRSC20344		3.05e5	2.73e5	inactive
81	kat80	DRSC20345		2.88e5	2.28e5	inactive
82	aqz	DRSC16570		44423	47743	inactive
83	ics	DRSC01878		1.02e5	68790	inactive
84	chn	DRSC06086	2 to 3 SD above plate mean	1.02e5	1.00e5	active
85	CG7140	DRSC11799		61300	58370	inactive
86	CG7742	DRSC03066		1.29e5	87463	inactive
87	CG34423 + Mthfs	DRSC04088		45473	53140	inactive
88	Rpn3	DRSC03318		56030	50857	inactive
89	Lsm11	DRSC06238		45633	78583	inactive
90	CheA86a	DRSC12839		2.31e5	2.10e5	inactive
91	CG9175	DRSC03153		93793	65780	inactive
92	Duba	DRSC10582		43447	36313	inactive
93	Wsck	DRSC13682		1.67e5	1.93e5	inactive
94	Dis3	DRSC16034		45043	40990	inactive
95	CG14645	DRSC12231		70280	68027	inactive
96	CysRS	DRSC05948		61223	68807	inactive
97	apn	DRSC15124		72070	62370	inactive
98	CG43325	DRSC04157		50067	63490	inactive
99	TwdlR	DRSC14736		38130	56830	inactive
100	Cpr97Ea	DRSC15974		51870	38930	inactive
101	cl	DRSC02118		1.18e5	81630	inactive
102	CG11583	DRSC08202		32130	32613	inactive
103	Blos3	DRSC09573		1.78e5	1.64e5	inactive
104	Rev1	DRSC08264		67227	62603	inactive
105	CG33655	DRSC03858		64133	63813	inactive
106	CG12470	DRSC18620		48120	37740	inactive
107	CycE	DRSC03295		10817	41447	inactive
108	CycE	DRSC03296		51943	51117	inactive

Called active, among the entries above:
gene	dsRNA	SD above plate mean	raw ATP luminescence, replicate 1	raw ATP luminescence, replicate 2	activity call
ppk27	DRSC08168	at least 2 SD above plate mean			active
CG3894	DRSC04429	at least 3 SD above plate mean	1.04e5	85130	active
chn	DRSC06086	2 to 3 SD above plate mean	1.02e5	1.00e5	active
